Measurements reported in PubChem BioAssay AID652243 (Drosophila RNAi Screening Center, 2013).
The deposit covers about 24,000 reagents; this is a random part of those with a known target gene and a result. In the full data, 246 (1%) were called active. 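Plates not normalised; calls are printed but the firefly/Renilla ratio behind them is not deposited; fold cut for lowering reported inconsistently.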 The raw values are shown without normalisation. Reagents against one gene are numbered here. Names joined by + are all predicted targets of the reagent. Not stated in the record: the amount of reagent.

Screen: 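Knock-downs that decrease or increase androgen receptor reporter signal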 (primary screen)
System: Drosophila S2R+ cells
Reagent: long dsRNA against Drosophila genes
Timing: 72 h (48 h, then 24 h hormone)
Treatment: synthetic androgen R1881 at 10 nM for 24 h
Read-out: 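Firefly light from an androgen-responsive reporter and Renilla control light per well, raw and unnormalised, for each of two replicates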
Reading the numbers: firefly reporter light: higher = more light from androgen-responsive reporter; Renilla control light: higher = more constitutive control signal (cell number, transfection)
Call rule: 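Hit when the log firefly-to-Renilla ratio dropped or increased by a fixed fold versus the mean of GFP or LacZ controls across duplicate plates; lowering cut given as 1.5 and as 3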
Meaning of the calls: active = hit: reporter lowered or raised; inactive = no hit

gene | dsRNA no. | firefly reporter light, replicate 1 | firefly reporter light, replicate 2 | Renilla control light, replicate 1 | Renilla control light, replicate 2 | Outcome
CG3420 | 1 | 3.62e5 | 4.63e5 | 2.67e6 | 2.88e6 | inactive
CG9897 + asRNA:CR42742 | 1 | 2.86e5 | 4.27e5 | 2.13e6 | 1.92e6 | inactive
Tctp | 1 | 1.86e5 | 1.94e5 | 2.60e6 | 3.02e6 | inactive
Tctp | 2 | 5.02e5 | 4.03e5 | 1.10e6 | 1.08e6 | inactive
Naprt | 1 | 8.10e5 | 9.38e5 | 3.12e6 | 2.80e6 | inactive
Naprt | 2 | 4.58e5 | 4.83e5 | 1.31e6 | 1.56e6 | inactive
natalisin | 1 | 1.23e5 | 1.44e5 | 1.80e6 | 2.15e6 | inactive
natalisin | 2 | 1.10e6 | 1.31e6 | 1.03e6 | 1.20e6 | inactive
natalisin | 3 | 3.36e5 | 2.82e5 | 8.14e5 | 7.23e5 | inactive
CG46385 | 1 | 2.41e5 | 2.59e5 | 1.29e6 | 1.22e6 | inactive
CG46385 | 2 | 3.75e5 | 3.65e5 | 8.04e5 | 6.55e5 | inactive
Rtca | 1 | 1.19e5 | 72507 | 6.61e5 | 6.81e5 | inactive
Pms2 | 1 | 1.60e6 | 9.01e5 | 2.30e6 | 1.27e6 | inactive
CG10970 | 1 | 1.61e5 | 1.21e5 | 1.15e6 | 6.51e5 | inactive
Ptp52F | 1 | 73491 | 77521 | 1.37e6 | 1.37e6 | inactive
Ptp52F | 2 | – | – | – | – | inactive
Ptp52F | 3 | – | – | – | – | inactive
Snm1 | 1 | 33040 | 68608 | 3.27e5 | 2.85e5 | inactive
rost | 1 | 1.34e6 | 1.24e6 | 3.48e6 | 2.66e6 | inactive
rost | 2 | 4.06e5 | 5.03e5 | 1.73e6 | 1.74e6 | inactive
rost | 3 | 9.24e5 | 1.02e6 | 1.74e6 | 1.62e6 | inactive
CG34426 | 1 | 2.22e5 | 2.90e5 | 2.76e6 | 2.27e6 | inactive

4 of these entries in another layout.
{"gene":"CG3420","dsRNA no.":1,"firefly reporter light, replicate 1":3.62e5,"firefly reporter light, replicate 2":4.63e5,"Renilla control light, replicate 1":2.67e6,"Renilla control light, replicate 2":2.88e6,"Outcome":"inactive"}
{"gene":"CG9897 + asRNA:CR42742","dsRNA no.":1,"firefly reporter light, replicate 1":2.86e5,"firefly reporter light, replicate 2":4.27e5,"Renilla control light, replicate 1":2.13e6,"Renilla control light, replicate 2":1.92e6,"Outcome":"inactive"}
{"gene":"Tctp","dsRNA no.":1,"firefly reporter light, replicate 1":1.86e5,"firefly reporter light, replicate 2":1.94e5,"Renilla control light, replicate 1":2.60e6,"Renilla control light, replicate 2":3.02e6,"Outcome":"inactive"}
{"gene":"Tctp","dsRNA no.":2,"firefly reporter light, replicate 1":5.02e5,"firefly reporter light, replicate 2":4.03e5,"Renilla control light, replicate 1":1.10e6,"Renilla control light, replicate 2":1.08e6,"Outcome":"inactive"}

Continued.
gene | dsRNA no. | firefly reporter light, replicate 1 | firefly reporter light, replicate 2 | Renilla control light, replicate 1 | Renilla control light, replicate 2 | Outcome
CG11668 | 1 | 1.47e5 | 1.91e5 | 2.36e6 | 2.96e6 | inactive
CG10560 | 1 | 1.95e5 | 1.53e5 | 2.10e6 | 2.09e6 | inactive
Prosalpha5 | 1 | 6.06e5 | 1.26e6 | 1.47e6 | 1.98e6 | inactive
CG34168 | 1 | 2.70e5 | 3.00e5 | 2.71e6 | 3.54e6 | inactive
aurA | 1 | 1.62e5 | 1.76e5 | 2.00e6 | 2.54e6 | inactive
aurA | 2 | 2.06e5 | 1.77e5 | 6.63e5 | 6.18e5 | active
CG4306 | 1 | 2.91e5 | 2.95e5 | 2.27e6 | 2.54e6 | inactive
CG4306 | 2 | 5.11e5 | 3.97e5 | 1.30e6 | 1.41e6 | inactive
CG8677 + CG31626 | 1 | 3.89e5 | 5.17e5 | 3.18e6 | 3.60e6 | inactive
mol | 1 | 1.43e5 | 2.01e5 | 5.02e5 | 4.03e5 | inactive
mol | 2 | 3.52e5 | 1.81e5 | 1.05e6 | 9.02e5 | inactive
mol | 3 | 1.76e5 | 1.57e5 | 2.34e6 | 2.52e6 | inactive
mol | 4 | 5.88e5 | 3.85e5 | 3.90e5 | 2.71e5 | inactive
Pmm2 | 1 | 1.74e5 | 1.80e5 | 1.97e6 | 1.86e6 | inactive
Pmm2 | 2 | 8.00e5 | 6.62e5 | 2.04e6 | 1.88e6 | inactive
Acyp | 1 | 3.17e5 | 4.39e5 | 2.02e6 | 2.19e6 | inactive
CG15373 | 1 | 7.71e5 | 7.66e5 | 4.08e6 | 2.25e6 | inactive
CG8915 | 1 | 1.42e5 | 1.90e5 | 1.10e6 | 9.70e5 | inactive
